According to article PMC8582450:
These are yes or no findings as the source states them, for the method shown. Binding seen in cells or lysates may run through a third protein. Here binding means that the protein was enriched with, or labelled near, the bait; the list need not be complete. No binding means not detected with the bait. Sequences can lack the tags named with a protein.

Chains of the proteins cited; added tags and fusions are not shown.
UniProt P12004: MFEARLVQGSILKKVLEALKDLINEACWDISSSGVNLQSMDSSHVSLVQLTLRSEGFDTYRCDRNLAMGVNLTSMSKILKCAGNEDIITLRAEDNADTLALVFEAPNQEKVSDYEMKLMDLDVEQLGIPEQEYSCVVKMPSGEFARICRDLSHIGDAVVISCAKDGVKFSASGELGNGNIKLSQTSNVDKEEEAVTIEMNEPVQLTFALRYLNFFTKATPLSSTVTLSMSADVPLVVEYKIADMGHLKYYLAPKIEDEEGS
UniProt P46940: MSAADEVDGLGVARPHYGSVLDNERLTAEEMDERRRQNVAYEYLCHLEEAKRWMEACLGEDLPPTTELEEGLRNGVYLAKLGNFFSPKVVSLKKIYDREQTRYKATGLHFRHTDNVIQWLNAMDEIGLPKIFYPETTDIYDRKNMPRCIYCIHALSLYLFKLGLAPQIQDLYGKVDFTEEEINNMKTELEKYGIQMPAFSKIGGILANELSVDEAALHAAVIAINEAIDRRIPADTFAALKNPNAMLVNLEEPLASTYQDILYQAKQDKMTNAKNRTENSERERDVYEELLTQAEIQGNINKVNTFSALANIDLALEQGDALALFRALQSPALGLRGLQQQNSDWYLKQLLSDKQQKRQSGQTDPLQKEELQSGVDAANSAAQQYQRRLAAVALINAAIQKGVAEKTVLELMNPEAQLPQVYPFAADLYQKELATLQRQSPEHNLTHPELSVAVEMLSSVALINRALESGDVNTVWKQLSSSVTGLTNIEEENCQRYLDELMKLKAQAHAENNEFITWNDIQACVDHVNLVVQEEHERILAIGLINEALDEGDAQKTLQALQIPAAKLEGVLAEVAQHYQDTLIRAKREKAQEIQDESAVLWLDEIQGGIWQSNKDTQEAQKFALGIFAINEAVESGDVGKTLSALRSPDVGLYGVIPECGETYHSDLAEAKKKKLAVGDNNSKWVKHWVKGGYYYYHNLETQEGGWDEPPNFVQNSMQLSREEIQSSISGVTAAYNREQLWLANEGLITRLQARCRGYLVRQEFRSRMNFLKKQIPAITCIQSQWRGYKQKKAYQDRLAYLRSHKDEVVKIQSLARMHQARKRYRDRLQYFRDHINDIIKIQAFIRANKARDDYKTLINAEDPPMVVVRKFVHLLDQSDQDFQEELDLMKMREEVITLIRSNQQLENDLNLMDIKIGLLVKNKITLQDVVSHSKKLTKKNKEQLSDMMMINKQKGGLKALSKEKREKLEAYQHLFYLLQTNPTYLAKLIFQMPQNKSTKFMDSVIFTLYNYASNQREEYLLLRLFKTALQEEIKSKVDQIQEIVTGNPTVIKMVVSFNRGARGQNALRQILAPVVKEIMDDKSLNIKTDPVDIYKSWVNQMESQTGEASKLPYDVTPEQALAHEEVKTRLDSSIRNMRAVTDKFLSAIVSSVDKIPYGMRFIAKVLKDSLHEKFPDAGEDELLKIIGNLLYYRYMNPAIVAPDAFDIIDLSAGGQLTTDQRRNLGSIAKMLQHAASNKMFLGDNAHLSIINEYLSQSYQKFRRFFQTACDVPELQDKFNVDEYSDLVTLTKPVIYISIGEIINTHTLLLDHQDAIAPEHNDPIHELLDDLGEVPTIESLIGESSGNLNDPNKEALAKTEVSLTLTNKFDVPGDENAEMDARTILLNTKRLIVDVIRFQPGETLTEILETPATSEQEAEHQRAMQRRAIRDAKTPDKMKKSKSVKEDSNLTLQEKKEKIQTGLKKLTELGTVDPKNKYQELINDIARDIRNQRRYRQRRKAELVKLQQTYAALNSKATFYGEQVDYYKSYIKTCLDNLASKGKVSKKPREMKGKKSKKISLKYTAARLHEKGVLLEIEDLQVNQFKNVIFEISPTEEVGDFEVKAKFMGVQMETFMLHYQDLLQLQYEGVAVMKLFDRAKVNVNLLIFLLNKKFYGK

How the values were obtained:
[1] = target: T1, HA-NIS (full-length sodium–iodide symporter with a triple HA tag in the fourth extracellular loop) (human) (UniProt Q92911); assay: affinity purification with mass spectrometry; PM-IP of HA-NIS from intact labelled HA-NIS-TPC1 cells; nanoLC-MS/MS, triplicates; high-confidence candidates filtered against control IgG IPs
T1 sequence: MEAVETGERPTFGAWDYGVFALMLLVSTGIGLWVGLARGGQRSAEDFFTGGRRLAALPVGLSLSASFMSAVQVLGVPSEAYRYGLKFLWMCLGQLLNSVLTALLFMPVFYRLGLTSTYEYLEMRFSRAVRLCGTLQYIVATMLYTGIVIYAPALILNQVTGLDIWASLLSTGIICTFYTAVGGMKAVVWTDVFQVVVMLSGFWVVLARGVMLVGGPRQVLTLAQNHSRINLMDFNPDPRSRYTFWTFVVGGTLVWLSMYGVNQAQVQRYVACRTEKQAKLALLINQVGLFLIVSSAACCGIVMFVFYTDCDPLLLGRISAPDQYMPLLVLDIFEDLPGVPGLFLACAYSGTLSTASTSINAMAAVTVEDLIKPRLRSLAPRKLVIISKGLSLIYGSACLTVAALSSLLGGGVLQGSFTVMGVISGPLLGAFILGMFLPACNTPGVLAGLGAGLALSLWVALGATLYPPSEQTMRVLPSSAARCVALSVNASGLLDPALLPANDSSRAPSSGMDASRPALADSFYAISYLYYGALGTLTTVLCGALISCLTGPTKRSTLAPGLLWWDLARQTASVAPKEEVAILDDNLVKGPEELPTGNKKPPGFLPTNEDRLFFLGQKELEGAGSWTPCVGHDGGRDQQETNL

[2] = target: T1, HA-NIS (full-length sodium–iodide symporter with a triple HA tag in the fourth extracellular loop) (human); assay: affinity purification with mass spectrometry; WC-IP of HA-NIS from whole cell lysates of HA-NIS-TPC1 cells; nanoLC-MS/MS, triplicates; high-confidence candidates filtered against control IgG IPs

Row | binding [1] | binding [2] | Substance
1 | no binding | no binding | PCNA (proliferating cell nuclear antigen) (from UniProt P12004 1-261)
2 | binds | binds | IQGAP1 (RAS GTPase-activating-like protein IQGAP1) (from UniProt P46940 1-1657)
